Values from PubChem BioAssay AID1259254 (NCATS, 2017)
The deposit covers about 59,000 reagents; shown is a part drawn at random. About 1,550 of them (2.6%) count as active. 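G2 share is only a proxy for re-replication; each gene was hit by three separate siRNAs, and active genes were retested.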 The raw values are shown without normalisation. Reagents against one gene are numbered here. Not stated in the record: the amount of reagent.

- Assay: 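Finding genes that stop cells copying their DNA twice in one cycle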 (primary screen)
- Cells: human HCT116 colorectal cancer cells
- Reagents: single siRNA against human genes
- Duration: 3 days
- Measurement: 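Imaged Hoechst DNA stain sorts each cell into a cycle phase by DNA amount; per plate, G2 fraction set to 0% for non-targeting and 100% for GMNN siRNA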
- Reading the numbers: G2 robust z-score and G2 cells, % of GMNN control: higher = more G2 cells, more excess DNA replication; raw share of cells in G2: higher = larger share of cells with G2 DNA content
- Hit rule: 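Active siRNAs have a G2 robust z of 5 or more median absolute deviations over the median, which in these data means about 38% or higher of GMNN control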

target,reagent no.,G2 robust z-score,"G2 cells, % of GMNN control",raw share of cells in G2 (%),activity call
SLC4A11,1,-0.179,1.71,4.81,inactive
SLC4A11,2,-0.0494,2.62,6.52,inactive
SLC4A11,3,0.966,9.76,8.4,inactive
POLR3K (RNA polymerase III subunit K),1,-0.953,-3.74,2.37,inactive
POLR3K (RNA polymerase III subunit K),2,-0.0845,2.37,5.12,inactive
POLR3K (RNA polymerase III subunit K),3,4.04,31.4,20.2,inactive
UBN1 (ubinuclein 1),1,-0.451,-0.208,3.92,inactive
UBN1 (ubinuclein 1),2,1.55,13.9,12.5,inactive
UBN1 (ubinuclein 1),3,-0.881,-3.23,3.12,inactive
ARL17B (ARF like GTPase 17B),1,-0.403,0.13,3.67,inactive
ARL17B (ARF like GTPase 17B),2,1.03,10.2,7.28,inactive
ARL17B (ARF like GTPase 17B),3,-0.336,0.6,3.32,inactive
LATS2 (large tumor suppressor kinase 2),1,2.51,20.6,12,inactive
LATS2 (large tumor suppressor kinase 2),2,-0.238,1.3,5.66,inactive
LATS2 (large tumor suppressor kinase 2),3,0.31,5.15,5.33,inactive
KCTD7 (potassium channel tetramerization domain containing 7),1,1.96,16.8,8.86,inactive
KCTD7 (potassium channel tetramerization domain containing 7),2,0.18,4.23,4.64,inactive
KCTD7 (potassium channel tetramerization domain containing 7),3,0.641,7.48,6.15,inactive
CHAF1B (chromatin assembly factor 1 subunit B),1,-1.13,-4.98,3.5,inactive
CHAF1B (chromatin assembly factor 1 subunit B),2,2.15,18.1,10.4,inactive
CHAF1B (chromatin assembly factor 1 subunit B),3,-1.18,-5.32,2.28,inactive
FAM3C (FAM3 metabolism regulating signaling molecule C),1,-0.571,-1.05,4.86,inactive
FAM3C (FAM3 metabolism regulating signaling molecule C),2,-0.612,-1.34,3.38,inactive
FAM3C (FAM3 metabolism regulating signaling molecule C),3,1.32,12.3,7.87,inactive
TLK2 (tousled like kinase 2),1,0.3,5.08,7.17,inactive
TLK2 (tousled like kinase 2),2,-0.447,-0.176,3.63,inactive
TLK2 (tousled like kinase 2),3,3.43,27.1,15.1,inactive

The list goes on; the last 4 above are carried over.
target,reagent no.,G2 robust z-score,"G2 cells, % of GMNN control",raw share of cells in G2 (%),activity call
FAM3C (FAM3 metabolism regulating signaling molecule C),3,1.32,12.3,7.87,inactive
TLK2 (tousled like kinase 2),1,0.3,5.08,7.17,inactive
TLK2 (tousled like kinase 2),2,-0.447,-0.176,3.63,inactive
TLK2 (tousled like kinase 2),3,3.43,27.1,15.1,inactive
CARD16 (caspase recruitment domain family member 16),1,1.57,14,11.5,inactive
CARD16 (caspase recruitment domain family member 16),2,0.659,7.61,6.98,inactive
CARD16 (caspase recruitment domain family member 16),3,1.63,14.5,9.64,inactive
MYT1 (myelin transcription factor 1),1,0.283,4.96,4.91,inactive
MYT1 (myelin transcription factor 1),2,-0.133,2.03,4.27,inactive
MYT1 (myelin transcription factor 1),3,-0.739,-2.23,3.8,inactive
NOPCHAP1 (NOP protein chaperone 1),1,-0.45,-0.197,1.76,inactive
NOPCHAP1 (NOP protein chaperone 1),2,-0.673,-1.77,3.38,inactive
NOPCHAP1 (NOP protein chaperone 1),3,0.878,9.14,6.06,inactive
SORT1 (sortilin 1),1,0.221,4.52,6.53,inactive
SORT1 (sortilin 1),2,-0.497,-0.526,4.48,inactive
SORT1 (sortilin 1),3,0.166,4.14,5.52,inactive
EPB41 (erythrocyte membrane protein band 4.1),1,0.0997,3.67,7.02,inactive
EPB41 (erythrocyte membrane protein band 4.1),2,-0.709,-2.02,3.35,inactive
EPB41 (erythrocyte membrane protein band 4.1),3,-0.844,-2.97,2.36,inactive
TMEM253 (transmembrane protein 253),1,-0.305,0.824,3.39,inactive
TMEM253 (transmembrane protein 253),2,-0.256,1.17,4.08,inactive
TMEM253 (transmembrane protein 253),3,-0.715,-2.06,2.53,inactive
CCDC38 (coiled-coil domain containing 38),1,1.84,15.9,10.5,inactive
CCDC38 (coiled-coil domain containing 38),2,0.057,3.37,4.33,inactive
CCDC38 (coiled-coil domain containing 38),3,-0.114,2.17,2.45,inactive
SCN10A (sodium voltage-gated channel alpha subunit 10),1,-0.357,0.456,5.45,inactive
SCN10A (sodium voltage-gated channel alpha subunit 10),2,-0.748,-2.29,4.01,inactive
SCN10A (sodium voltage-gated channel alpha subunit 10),3,-0.0614,2.54,5.36,inactive
CXCL9 (C-X-C motif chemokine ligand 9),1,0.844,8.91,8.76,inactive
CXCL9 (C-X-C motif chemokine ligand 9),2,-0.558,-0.96,3.84,inactive
CXCL9 (C-X-C motif chemokine ligand 9),3,2.28,19,10.2,inactive
OOSP2 (oocyte secreted protein 2),1,0.505,6.52,5.94,inactive
OOSP2 (oocyte secreted protein 2),2,-1.19,-5.4,1.28,inactive
OOSP2 (oocyte secreted protein 2),3,1.28,12,7.03,inactive
BCL2L13 (BCL2 like 13),1,-1.29,-6.14,1.98,inactive
BCL2L13 (BCL2 like 13),2,4.93,37.6,23.2,inactive
BCL2L13 (BCL2 like 13),3,-0.288,0.942,4.5,inactive
ACSS3 (acyl-CoA synthetase short chain family member 3),1,-0.443,-0.146,4.52,inactive
ACSS3 (acyl-CoA synthetase short chain family member 3),2,-0.371,0.36,4.77,inactive
ACSS3 (acyl-CoA synthetase short chain family member 3),3,-0.493,-0.502,2.57,inactive
"PSMD6 (proteasome 26S subunit, non-ATPase 6)",1,0.0425,3.27,6.44,inactive
"PSMD6 (proteasome 26S subunit, non-ATPase 6)",2,1.38,12.7,9.89,inactive
"PSMD6 (proteasome 26S subunit, non-ATPase 6)",3,-0.579,-1.1,2.82,inactive
LOC727751 (golgin A2 pseudogene),1,-0.744,-2.26,2.07,inactive
LOC727751 (golgin A2 pseudogene),2,-0.96,-3.79,2.17,inactive
LOC727751 (golgin A2 pseudogene),3,0.369,5.56,5.65,inactive
